Source: PubChem BioAssay AID493014 (National Center for Advancing Translational Sciences (NCATS), 2011)
The list shows a part of the results. These are further read-outs of the screen, such as a control signal, another cell line or another target. No call is given for them. Compounds called inactive in the main read-out are mostly missing here. Potencies come from curve fits of mixed quality, noted in brackets.

Assay: qHTS Assay to Find Inhibitors of Chronic Active B-Cell Receptor Signaling
Settings: ABC-DLBCL IkBa-CBG/CBR reporter, luminescence ratio (green luciferase fused to IkBa over red control in TMD8 lymphoma cells), 4 h
Method in brief: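 Concentration-response series (up to 46 uM) were applied to TMD8 dual-reporter cells for 4 h at 37C with doxycycline. Green/red ratio, after filter-overlap correction, defined %Activity; red signal alone was normalised to basal cells and zero luminescence.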

[1] = measured here: CBR red luminescence, cell number
[2] = measured here: IkBa-CBG green luminescence

With CCCOc1ccc(-c2nnc(-c3ccncc3)o2)cc1 the AC50 [1] was 17.8 µM [rising, partial curve, poor fit].

For CC(=O)c1ccc(-n2nnnc2SCC(=O)Nc2cccc(NC(=O)c3ccco3)c2)cc1, the AC50 [1] was 1.12 µM [falling, full curve, poor fit].

In the case of CCCCCCCCOC(=O)c1ccc(N)cc1, the AC50 [1] is reported as 5.8 µM [rising, full curve, poor fit].

In the case of Cc1ccc(C(=O)N/C(=C\c2ccc3c(c2)OCO3)C(=O)Nc2ccc(C(=O)O)cc2)cc1, the AC50 [2] is reported as 20 µM [rising, partial curve, poor fit].

With S=c1[nH]nc(Cc2ccccc2)n1-c1ccc(Cl)cc1 the AC50 [1] was 0.398 µM [rising, full curve, poor fit].

With CCC(C(=O)NCCCN(CC)Cc1ccccc1)n1nc(C)c2sc3ccccc3c2c1=O (stereo not drawn) the AC50 [1] was 10 µM [falling, partial curve].

In the case of O=C(c1cc(-c2ccc3c(c2)OCO3)on1)N1CCCCC1, the AC50 [1] is reported as 2 µM [falling, full curve, poor fit].

In the case of Cc1ccc(S(=O)(=O)Nc2ccc(S(=O)(=O)NC(C)(C)C)cc2)cc1, the AC50 [1] is reported as 14.6 µM [falling, partial curve, poor fit].

With COc1cc(OC)c(C2N(c3ccc(Cl)cc3)C(=O)C3CCCN32)cc1OC (stereo not drawn) the AC50 [1] was 31.6 µM [rising, partial curve, poor fit].

With Cc1ccc(N=Nc2c(N)nn(-c3ccccc3)c2N)cc1 the AC50 [1] was 11.6 µM [falling, partial curve].

For Cc1ccc(OCC(=O)NCc2cccs2)cc1, the AC50 [1] was 13 µM [falling, single point].

In the case of Cc1ccc(/C([O-])=C(/C(=S)NCc2ccco2)[n+]2ccccc2)cc1[N+](=O)[O-], the AC50 [1] is reported as 3.98 µM [rising, partial curve, poor fit].

With Cn1ncc2c(Nc3cccc(F)c3)ncnc21 the AC50 [1] was 3.98 µM [falling, partial curve, poor fit].

For O=C(NCCO)c1cc2c([nH]c3ccccc32)c(-c2ccc(F)cc2)n1, the AC50 [1] was 14.1 µM [falling, single point].

In the case of Cc1cc(Cl)ccc1OCCn1cncn1, the AC50 [1] is reported as 35.5 µM [rising, single point].

For COc1ccc(NC(=S)N(CCCN2CCOCC2)Cc2cn(C)c3ccccc23)cc1, the AC50 [1] was 11.6 µM [rising, partial curve, poor fit].

In the case of O=C(N/N=C/c1ccc2ccccc2c1)c1ccc(COc2ccc3c(c2)CCC3)o1, the AC50 [1] is reported as 0.447 µM [falling, full curve, poor fit].

For COc1ccc(C2CNC(=O)C2)cc1OC1CCCC1 (stereo not drawn), the AC50 [1] was 4.47 µM [rising, full curve, poor fit].

For O=C1/C(=C/c2ccccn2)SC(=S)N1N1CCOCC1, the AC50 [1] was 2.24 µM [rising, partial curve, poor fit].

For Cc1c(C(=O)N/N=C/c2ccc(Cl)cc2)[nH]c2ccc(Cl)cc12, the AC50 [1] was 1.3 µM [rising, full curve, poor fit] and the AC50 [2] was 2.06 µM [falling, full curve].

For O=C(Nc1cnc2ccccc2c1)c1ccncc1, the AC50 [1] was 16.4 µM [falling, partial curve].

With O=c1c(O)c(-c2ccc(O)cc2O)oc2cc(O)cc(O)c12 the AC50 [1] was 3.66 µM [rising, partial curve] and the AC50 [2] was 7.31 µM [falling, partial curve].

In the case of O=C1CC(N2CCN(C/C=C/c3ccccc3)CC2)C(=O)N1Cc1cccs1 (stereo not drawn), the AC50 [1] is reported as 3.66 µM [rising, partial curve, poor fit].

For COc1ccc2c(C#CCCO)c(-c3ccc(S(C)(=O)=O)cc3)sc2c1, the AC50 [1] was 16.4 µM [rising, single point] and the AC50 [2] was 20.6 µM [falling, partial curve].

In the case of CC(C)CN1C(=O)c2ccc(C(=O)Nc3ccccn3)cc2C1=O, the AC50 [1] is reported as 6.31 µM [falling, single point].

In the case of Cn1cc(/C(Cc2ccccc2)=N\O)c2ccccc21, the AC50 [1] is reported as 10 µM [rising, partial curve].

With CCn1c(SCC(=O)Nc2ccc(-c3nc4ccc(C)cc4s3)cc2)nnc1-c1ccccc1 the AC50 [1] was 29.1 µM [rising, single point].

In the case of CCC1CCCCN1CCCNC(=O)C1CCN(Cc2nc(-c3ccc(Cl)cc3)oc2C)CC1 (stereo not drawn), the AC50 [1] is reported as 8.91 µM [falling, partial curve, poor fit].

In the case of COc1cccc(-c2ccc3ncnc(N(C)Cc4ccco4)c3c2)c1, the AC50 [1] is reported as 29.1 µM [falling, single point].

For COc1ccc(/C=N/NC(=O)c2cccc(NC(C)=O)c2)c(OC)c1, the AC50 [1] was 15.8 µM [falling, partial curve, poor fit].

For Cc1cc(C(=O)N/N=C/c2sccc2C)no1, the AC50 [1] was 20.6 µM [falling, partial curve].

In the case of Oc1c(C(Nc2cccc(C(F)(F)F)c2)c2ccncc2)ccc2cccnc12 (stereo not drawn), the AC50 [1] is reported as 15.8 µM [falling, single point].

For Cn1c(=O)c2c(ncn2CC(=O)Nc2ccccc2Sc2ccccc2)n(C)c1=O, the AC50 [1] was 6.31 µM [falling, single point].

In the case of COc1ccc(OC)c(NC(=O)C(CCS(C)(=O)=O)NC(C)=O)c1 (stereo not drawn), the AC50 [1] is reported as 29.1 µM [rising, single point].

For COc1ccc(C(=O)COC(=O)Cn2c(C)csc2=O)c(OC)c1, the AC50 [1] was 18.4 µM [rising, partial curve].

With CC(C)OCCCNc1ncnc2c1[nH]c1ccccc12 the AC50 [1] was 29.1 µM [falling, single point].

With Nc1nc(Nc2ccccc2)nc(NC2CCCCC2)c1[N+](=O)[O-] the AC50 [1] was 35.5 µM [falling, partial curve, poor fit].

In the case of CCCN1CCC(NC(=S)Nc2ccc(S(N)(=O)=O)cc2)CC1, the AC50 [1] is reported as 35.5 µM [rising, partial curve, poor fit].

With Nc1nnc(SCC(=O)Nc2cc(S(=O)(=O)N3CCOCC3)ccc2N2CCCC2)s1 the AC50 [1] was 25.9 µM [rising, single point].

For Cc1nnc(SCC(=O)Nc2nsc(-c3ccc(C(C)(C)C)cc3)n2)s1, the AC50 [1] was 23.1 µM [rising, partial curve, poor fit].
